According to publication PMC7862700:
This is one part of the list. The exact form of the protein is not confirmed.

Molecular target: T1, ELF2 (UniProt Q15723)
T1 sequence: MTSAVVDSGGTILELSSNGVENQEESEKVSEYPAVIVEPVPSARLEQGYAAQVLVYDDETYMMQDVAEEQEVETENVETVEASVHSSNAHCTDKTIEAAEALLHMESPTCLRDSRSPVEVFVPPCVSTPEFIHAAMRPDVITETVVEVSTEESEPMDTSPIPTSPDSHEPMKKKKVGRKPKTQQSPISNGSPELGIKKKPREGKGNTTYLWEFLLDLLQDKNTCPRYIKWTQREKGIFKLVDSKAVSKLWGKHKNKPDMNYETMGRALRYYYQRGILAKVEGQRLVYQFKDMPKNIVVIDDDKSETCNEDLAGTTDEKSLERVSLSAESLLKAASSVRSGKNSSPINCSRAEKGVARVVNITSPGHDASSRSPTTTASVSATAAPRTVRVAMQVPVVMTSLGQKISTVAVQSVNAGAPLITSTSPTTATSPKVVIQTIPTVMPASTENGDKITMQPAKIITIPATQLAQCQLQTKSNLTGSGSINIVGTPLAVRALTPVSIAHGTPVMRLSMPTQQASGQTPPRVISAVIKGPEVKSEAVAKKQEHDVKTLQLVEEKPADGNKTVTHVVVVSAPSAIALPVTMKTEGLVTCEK
Assay: DAPPL (digital affinity profiling via proximity ligation, sequencing)
Conditions: 10 mM Tris-HCl pH 7.5, 50 mM NaCl, 1 mM DTT, 4% glycerol, room temperature, 30 min; GST-TFs on glutathione beads, 16-mer random dsDNA library, 0.1% …; high values mean tight binding; double strand, one strand shown; scale: fold enrichment (6-mer frequency, TF over GST control)

Sequence	binding signal
CGATAG	1.07
GTTATT	1.17
CCTCTG	1.46
TTATAT	1.38
TCGAAG	0.837
TTATCG	1.18
AGTCTC	0.964
CAGATG	0.961
CGCTCG	0.993
ATCCCG	1.53
AGAAGT	1.02
GCTATG	1.15
TCCCAT	1.36
GATTTG	1.13
CCCTAG	0.953
TATTTG	1.41
AGATCT	0.895
TCACGT	1.16
TTAGTC	0.756
TTCGGG	0.876

Sequence	binding signal
TTGTTA	1.27
AAAGAT	1.2
CCTTAC	1.3
TCGAGA	0.582
CTCACA	1.2
TAGTGT	1.13
CCCGTA	1.2
ATTCGG	0.915
GCGAAC	0.903
CGAGAA	0.847
TGCCTC	1.31
ACTGCC	1.44
TCTAGA	0.918
CCAAGA	0.875
AGTATA	1.02
GACTTA	0.945
TACACT	1.54
GAATAG	0.944
TCTGGC	1.17
TAGTAG	0.988

A portion of the results above, for reference:
Sequence	binding signal
TCGAGA	0.582
CTCACA	1.2
TAGTGT	1.13
CCCGTA	1.2
ATTCGG	0.915
GCGAAC	0.903
CGAGAA	0.847
TGCCTC	1.31
ACTGCC	1.44
TCTAGA	0.918
